Reference: patent US7666391B2, “Breast homing peptides and methods of identifying same using aminopeptidase P” (Burnham Institute for Medical Research, priority 2001, dated 2010)
No constants are given. Whether binding was seen depends on the method and setting. Some results given as binding are weak or reduced against the parent protein; the word gives no strength.

Assays:
… (SEQ ID NO: 2) peptide [1] = molecular target: T1, … (SEQ ID NO: 2) peptide; test: phage (10^8 pfu) binding to microtiter wells coated with … peptide
T1 sequence (peptide, cyclized (synthetic peptide, cyclized and purified by HPLC)): CPGPEGAGC

… (SEQ ID NO: 2) peptide [2] = molecular target: T1, … (SEQ ID NO: 2) peptide; test: T7 phage clone binding to microtiter wells coated with … peptide; pfu recovered

FMARASGCPLVLRCACDCHTGNVLGGQDCNCS [clone #47, phage displaying an aminopeptidase P cDNA fragment]
binding (… (SEQ ID NO: 2) peptide [1]): binds
binding (… (SEQ ID NO: 2) peptide [2]): binds
